For twelve molecules, binding results are on record in article PMC6497791.

Amino acid sequences for entries named in this document (tags omitted). Residues count along the entry.
UniProt P22723, residues 39-474: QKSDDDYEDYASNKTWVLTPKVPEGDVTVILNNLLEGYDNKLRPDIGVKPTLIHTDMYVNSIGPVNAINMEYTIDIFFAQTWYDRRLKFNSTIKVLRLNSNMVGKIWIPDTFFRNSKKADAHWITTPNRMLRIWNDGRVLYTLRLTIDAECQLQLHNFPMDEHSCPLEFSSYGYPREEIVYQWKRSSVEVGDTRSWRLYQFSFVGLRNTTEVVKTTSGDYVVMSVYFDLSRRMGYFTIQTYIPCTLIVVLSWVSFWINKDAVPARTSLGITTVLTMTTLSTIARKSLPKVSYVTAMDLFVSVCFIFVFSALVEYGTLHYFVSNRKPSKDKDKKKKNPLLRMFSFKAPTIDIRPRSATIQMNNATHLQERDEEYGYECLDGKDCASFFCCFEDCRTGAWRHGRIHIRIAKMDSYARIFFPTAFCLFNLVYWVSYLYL

The assay addresses GABA type A receptor γ2 subunit (mouse (endogenous in cortical tissue)) (UniProt P22723). Description: affinity purification with mass spectrometry; mouse cortical tissue lysate (mice injected with vehicle or 10 mg/kg DZP, 12 h) in co-IP buffer (50 mM Tris HCl pH 7.6, 50 mM NaCl, 0.25% Igepal, 1 mM EDTA), immunoprecipitated overnight with rabbit γ2 subunit antibody or rabbit IgG, Protein A Sepharose, 4°C; label-free HPLC-ESI-MS/MS; hits at least 3:1 enriched over IgG control.

Results are given in words; binding and its absence hold for the method and conditions named. In cells and extracts the contact can be indirect. A yes stands for co-enrichment or nearness to the bait. Other partners may have been found.

B1: Contactin 1 (protein, UniProt P12960 21-1001)
chain: DFTWHRRYGHGVSEEDKGFGPIFEEQPINTIYPEESLEGKVSLNCRARASPFPVYKWRMNNGDVDLTNDRYSMVGGNLVINNPDKQKDAGVYYCLASNNYGMVRSTEATLSFGYLDPFPPEERPEVKVKEGKGMVLLCDPPYHFPDDLSYRWLLNEFPVFITMDKRRFVSQTNGNLYIANVESSDRGNYSCFVSSPSITKSVFSKFIPLIPIPERTTKPYPADIVVQFKDIYTMMGQNVTLECFALGNPVPDIRWRKVLEPMPSTAEISTSGAVLKIFNIQLEDEGLYECEAENIRGKDKHQARIYVQAFPEWVEHINDTEVDIGSDLYWPCIATGKPIPTIRWLKNGYSYHKGELRLYDVTFENAGMYQCIAENAYGSIYANAELKILALAPTFEMNPMKKKILAAKGGRVIIECKPKAAPKPKFSWSKGTEWLVNSSRILIWEDGSLEINNITRNDGGIYTCFAENNRGKANSTGTLVITNPTRIILAPINADITVGENATMQCAASFDPALDLTFVWSFNGYVIDFNKEITHIHYQRNFMLDANGELLIRNAQLKHAGRYTCTAQTIVDNSSASADLVVRGPPGPPGGLRIEDIRATSVALTWSRGSDNHSPISKYTIQTKTILSDDWKDAKTDPPIIEGNMESAKAVDLIPWMEYEFRVVATNTLGTGEPSIPSNRIKTDGAAPNVAPSDVGGGGGTNRELTITWAPLSREYHYGNNFGYIVAFKPFDGEEWKKVTVTNPDTGRYVHKDETMTPSTAFQVKVKAFNNKGDGPYSLVAVINSAQDAPSEAPTEVGVKVLSSSEISVHWKHVLEKIVESYQIRYWAGHDKEAAAHRVQVTSQEYSARLENLLPDTQYFIEVGACNSAGCGPSSDVIETFTRKAPPSQPPRIISSVRSGSRYIITWDHVVALSNESTVTGYKILYRPDGQHDGKLFSTHKHSIEVPIPRDGEYVVEVRAHSDGGDGVVSQVKISGVSTLS
Regarding B1, the binding entry is “binds”.

B2: Aconitase 2 (protein, UniProt Q99KI0 28-780)
chain: QRAKVAMSHFEPSEYIRYDLLEKNINIVRKRLNRPLTLSEKIVYGHLDDPANQEIERGKTYLRLRPDRVAMQDATAQMAMLQFISSGLPKVAVPSTIHCDHLIEAQVGGEKDLRRAKDINQEVYNFLATAGAKYGVGFWRPGSGIIHQIILENYAYPGVLLIGTDSHTPNGGGLGGICIGVGGADAVDVMAGIPWELKCPKVIGVKLTGSLSGWTSPKDVILKVAGILTVKGGTGAIVEYHGPGVDSISCTGMATICNMGAEIGATTSVFPYNHRMKKYLSKTGRTDIANLAEEFKDHLVPDPGCQYDQVIEINLNELKPHINGPFTPDLAHPVADVGTVAEKEGWPLDIRVGLIGSCTNSSYEDMGRSAAVAKQALAHGLKCKSQFTITPGSEQIRATIERDGYAQILRDVGGIVLANACGPCIGQWDRKDIKKGEKNTIVTSYNRNFTGRNDANPETHAFVTSPEIVTALAIAGTLKFNPETDFLTGKDGKKFKLEAPDADELPRSDFDPGQDTYQHPPKDSSGQRVDVSPTSQRLQLLEPFDKWDGKDLEDLQILIKVKGKCTTDHISAAGPWLKFRGHLDNISNNLLIGAINIENGKANSVRNAVTQEFGPVPDTARYYKKHGIRWVVIGDENYGEGSSREHAALEPRHLGGRAIITKSFARIHETNLKKQGLLPLTFADPSDYNKIHPVDKLTIQGLKDFAPGKPLKCVIKHPNGTQETILLNHTFNETQIEWFRAGSALNRMKELQQ
For the molecule B2, the binding entry is on record as “binds”.

B3: Tyrosine 3-monooxygenase/tryptophan 5-monooxygenase activation protein gamma (14-3-3 gamma) (protein, UniProt P61982 1-247)
chain: MVDREQLVQKARLAEQAERYDDMAAAMKNVTELNEPLSNEERNLLSVAYKNVVGARRSSWRVISSIEQKTSADGNEKKIEMVRAYREKIEKELEAVCQDVLSLLDNYLIKNCSETQYESKVFYLKMKGDYYRYLAEVATGEKRATVVESSEKAYSEAHEISKEHMQPTHPIRLGLALNYSVFYYEIQNAPEQACHLAKTAFDDAIAELDTLNEDSYKDSTLIMQLLRDNLTLWTSDQQDDDGGEGNN
For B3, the binding result is listed as “binds”.

B4: ATP synthase peripheral stalk subunit OSCP (protein, UniProt Q9DB20 24-213)
chain: FAKLVRPPVQVYGIEGRYATALYSAASKEKKLDQVEKELLRVGQLLKDPKVSLAVLNPYIKRTVKVKSLNDITKREKFSPLTANLMNLLAENGRLGNTQGIISAFSTIMSVHRGEVPCTVTTASPLDDAVLSELKTVLKSFLSPNQILKLEIKTDPSIMGGMIVRIGEKYVDMSAKSKIQKLSKAMREML
Regarding B4, the binding entry was “binds”.

B5: Synaptogyrin 3 (protein, UniProt Q8R191 1-229)
chain: MEGASFGAGRAGAAFDPVSFARRPQTLLRVVSWVFSIAVFGPIVNEGYVNSDSGPELRCVFNGNAGACRFGVVLGLGAFIACVAFLLLDVRFQQISSVRDRRRAVLLDLGFSGVWSFLWFVGFCFLTNQWQRTTPGPGTAQAGDAARAAIAFSFFSILSWVALTVKALQRFRLGTDMSLFATDQLGTGAAQAYPGYPVGSGVEGTETYQSPPFTETLDTSSKGYQVPAY
For the molecule B5, the binding result is “binds”.

B6: Dihydropyrimidinase like 5 (protein, UniProt Q9EQF6 1-564)
chain: MLANSASVRILIKGGKVVNDDCTHEADVYIESGIIQQVGRELMIPGGAKVIDATGKLVIPGGIDTSTHFHQTFMNATCVDDFYHGTKAALVGGTTMIIGHVLPDKETSLVEAYEKCRALADPKVCCDYALHVGITWWAPKVKAEMETLVREKGVNSFQMFMTYKDLYMLRDSELYQVFHACRDIGAIPRVHAENGELVAEGAKEALDLGITGPEGIEISHPEELEAEATHRVITIANRTHCPIYLVNVSSISAGDVIAAAKMQGKVVLAETTNAHATLTGLHYYHQDWSHAAAYVTVPPLRLDTNTSTYLMSLLANDTLNIVASDHRPFTTKQKAMGKEDFTKIPHGVSGVQDRMSVVWERGVVGGKMDENRFVAVTSSNAAKILNLYPRKGRIIPGADADVVVWDPEATKTISASTQVQGGDFNLYENMRCHGVPLVTISRGRVVYENGVFMCAEGTGKFCPLRSFPDIVYKKLVQREKTLKVRGVDRTPYLGDVAIVVHPGKKEMGTPLADTPTRPVTRHGGMRDLHESSFSLSGSQIDDHVPKRASARILAPPGGRSSGIW
On to B6, for which the binding entry is “binds”.

B7: Solute carrier family 25 member 3 (protein, UniProt Q8VEM8 46-357)
chain: AVEEYSCEFGSMKYYALCGFGGVLSCGLTHTAVVPLDLVKCRMQVDPQKYKGIFNGFSITLKEDGVRGLAKGWAPTLIGYSMQGLCKFGFYEVFKALYSNILGEENTYLWRTSLYLASSASAEFFADIALAPMEAAKVRIQTQPGYANTLREAVPKMYKEEGLNAFYKGVAPLWMRQIPYTMMKFACFERTVEALYKFVVPKPRSECTKAEQLVVTFVAGYIAGVFCAIVSHPADSVVSVLNKEKGSTASQVLQRLGFRGVWKGLFARIIMIGTLTALQWFIYDSVKVYFRLPRPPPPEMPESLKKKLGLTE
Turning to B7, the binding result is on record as “binds”.

B8: Prohibitin (protein, UniProt P67778 1-272)
chain: MAAKVFESIGKFGLALAVAGGVVNSALYNVDAGHRAVIFDRFRGVQDIVVGEGTHFLIPWVQKPIIFDCRSRPRNVPVITGSKDLQNVNITLRILFRPVASQLPRIYTSIGEDYDERVLPSITTEILKSVVARFDAGELITQRELVSRQVSDDLTERAATFGLILDDVSLTHLTFGKEFTEAVEAKQVAQQEAERARFVVEKAEQQKKAAIISAEGDSKAAELIANSLATAGDGLIELRKLEAAEDIAYQLSRSRNITYLPAGQSVLLQLPQ
Turning to B8, the binding entry was “binds”.

B9: Carbonyl reductase 1 (protein, UniProt P48758 1-277)
chain: MSSSRPVALVTGANKGIGFAITRDLCRKFSGDVVLAARDEERGQTAVQKLQAEGLSPRFHQLDIDNPQSIRALRDFLLKEYGGLDVLVNNAGIAFKVNDDTPFHIQAEVTMKTNFFGTRDVCKELLPLIKPQGRVVNVSSMVSLRALKNCRLELQQKFRSETITEEELVGLMNKFVEDTKKGVHAEEGWPNSAYGVTKIGVTVLSRILARKLNEQRRGDKILLNACCPGWVRTDMAGPKATKSPEEGAETPVYLALLPPDAEGPHGQFVQDKKVEPW
On to B9, for which the binding entry is listed as “binds”.

B10: Internexin neuronal intermediate filament protein alpha (protein, UniProt P46660 1-501)
chain: MSFGSEHYLCSASSYRKVFGDSSRLSARLSGPGGSGSFRSQSLSRSNVASTAACSSASSLGLGLAYRRLPASDGLDLSQAAARTNEYKIIRTNEKEQLQGLNDRFAVFIEKVHQLETQNRALEAELAALRQRHAEPSRVGELFQRELRELRAQLEEASSARAQALLERDGLAEEVQRLRARCEEESRGREGAERALKAQQRDVDGATLARLDLEKKVESLLDELAFVRQVHDEEVAELLATLQASSQAAAEVDVAVAKPDLTSALREIRAQYESLAAKNLQSAEEWYKSKFANLNEQAARSTEAIRASREEIHEYRRQLQARTIEIEGLRGANESLERQILELEERHSAEVAGYQDSIGQLESDLRNTKSEMARHLREYQDLLNVKMALDIEIAAYRKLLEGEETRFSTGGLSISGLNPLPNPSYLLPPRILSSTASKVSSAGLSLKKEEEEEEEEASKEVSKKTSKVGEGFEETLGEAVISTKKTGKSATEESTSSSQKM
Take B10: the binding entry was “binds”.

B11: Succinate-CoA ligase ADP-forming beta subunit (protein, UniProt Q9Z2I9 54-463)
chain: SLHEYLSMELLQEAGVSVPKGFVAKSSDEAYAIAKKLGSKDVVIKAQVLAGGRGKGTFTSGLKGGVKIVFSPEEAKAVSSQMIGQKLITKQTGEKGRICNQVLVCERKYPRREYYFAITMERSFQGPVLIGSAQGGVNIEDVAAENPEAIVKEPIDIVEGIKKEQAVTLAQKMGFPSNIVDSAAENMIKLYNLFLKYDATMVEINPMVEDSDGKVLCMDAKINFDSNSAYRQKKIFDLQDWSQEDERDKEAANADINYIGLDGSIGCLVNGAGLAMATMDIIKLHGGTPANFLDVGGGATVQQVTEAFKLITSDKKVQAILVNIFGGIMRCDVIAQGIVMAVKDLEIRIPVVVRLQGTRVDDAKALIADSGLKILACDDLDEAAKMVVKLSEIVTLAKEAHVDVKFQLPI
Take B11: the binding result is “binds”.

B12: Neurofilament, medium polypeptide (protein, UniProt P08553 1-848)
chain: MSYTLDSLGNPSAYRRVTETRSSFSRVSGSPSSGFRSQSWSRGSPSTVSSSYKRSALAPRLAYSSAMLSSAESSLDFSQSSSLLNGGSGGDYKLSRSNEKEQLQGLNDRFAGYIEKVHYLEQQNKEIEAEIQALRQKQASHAQLGDAYDQEIRELRATLEMVNHEKAQVQLDSDHLEEDIHRLKERFEEEARLRDDTEAAIRALRKDIEESSMVKVELDKKVQSLQDEVAFLRSNHEEEVADLLAQIQASHITVERKDYLKTDISTALKEIRSQLECHSDQNMHQAEEWFKCRYAKLTEAAEQNKEAIRSAKEEIAEYRRQLQSKSIELESVRGTKESLERQLSDIEERHNHDLSSYQDTIQQLENELRGTKWEMARHLREYQDLLNVKMALDIEIAAYRKLLEGEETRFSTFSGSITGPLYTHRQPSVTISSKIQKTKVEAPKLKVQHKFVEEIIEETKVEDEKSEMEETLTAIAEELAASAKEEKEEAEEKEEEPEAEKSPVKSPEAKEEEEEGEKEEEEEGQEEEEEEDEGVKSDQAEEGGSEKEGSSEKDEGEQEEEEGETEAEGEGEEAEAKEEKKIEGKVEEVAVKEEIKVEKPEKAKSPMPKSPVEEVKPKPEAKAGKGEQKEEEKVEEEKKEVTKESPKEEKVEKKEEKPKDVADKKKAESPVKEKAVEEVITISKSVKVSLEKDTKEEKPQPQEKVKEKAEEEGGSEEEGSDRSPQESKKEDIAINGEVEGKEEEEQETQEKGSGREEEKGVVTNGLDVSPAEEKKGEDSSDDKVVVTKKVEKITSEGGDGATKYITKSVTVTQKVEEHEETFEEKLVSTKKVEKVTSHAIVKEVTQGD
Consider B12, for which the binding entry is “binds”.
